From PubChem BioAssay AID504648 (National Center for Advancing Translational Sciences (NCATS), 2011)
Hit rate of the full screen: of about 390,000 compounds, about 610 (0.16%) were called active. Inconclusive means that the source gave no clear call. Such entries were picked first, then a sample of the others. The call rests on the fitted dose curve; in most records, active means well fitted inhibition curve with a large enough effect; inconclusive means small, poorly fitted or top-dose-only effect, or effect the other way, or another doubt; inactive means no such curve, though single readings can be large or run the other way. Potencies of inconclusive entries are doubtful fits and often do not repeat.

Experiment: Nrf2 qHTS screen for inhibitors: counterscreen for cytotoxicity
Details: A549 ARE-Fluc cells, CellTiter-Fluor viability, 18-24 h; series mostly up to 46 µM
Summary of the method: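 A549 ARE-Fluc cells in 5% FBS OPTI-MEM, 5000 cells/well, rested 2 h then exposed to compounds in concentration-response for 18-24 h at 37 °C. Viability by CellTiter-Fluor fluorescence (Ex 405/Em 525) after 30 min; luciferase luminescence (BugLite, 15 min, RT) read afterwards.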
Potency means the concentration at half of the fitted maximal effect.

| Compound | Potency |
| --- | --- |
| Cc1ccccc1CN1[C@@H](CC2CCCCC2)COCCS1(=O)=O | inactive |
| COc1ccc2nc(NC(=O)c3cc(=O)c4cc(C)cc(C)c4o3)sc2c1 | inactive |
| CC(=O)OC1C2CCC1C([N+]1(C)CCCCC1)CC2 (stereo not drawn) | inactive |
| COc1ccc(OC)c(NC(=O)CCNS(=O)(=O)c2ccc3c(c2)oc(=O)n3C)c1 | inactive |
| COc1cc(/C=C(\C#N)C(=O)N2CCOCC2)ccc1OCc1ccccc1 | inactive |
| N=C1C(c2nc3ccccc3s2)=C(O)CN1Cc1ccccc1 | inconclusive: 20.6 µM [falling, single point] |
| O=C1Nc2ccc(Br)cc2C12NNc1ccccc1O2 (stereo not drawn) | inconclusive: 23.1 µM [falling, partial curve, poor fit] |
| CN(C)/C=C1\SC(=S)N(N2C(=O)C3C4C=CC(C4)C3C2=O)C1=O (stereo not drawn) | inconclusive: 25.9 µM [falling, partial curve] |
| Cc1ccc(NC(=S)Nc2ccc(OC(F)F)c(Cl)c2)cc1Cl | inactive |
| COc1ccc(C(=O)CSc2nnc(-c3cc4ccccc4cc3O)n2Cc2ccco2)cc1 | inactive |
| O=c1cc(N2CCCCC2)c(-c2ccccc2)nn1Cc1c(Cl)cccc1Cl | inconclusive: 29.1 µM [falling, single point] |
| Cc1cccc(Cn2nnc3c(=O)[nH]c(C4CCCN(C(=O)c5ccccc5Cl)C4)nc32)c1 (stereo not drawn) | inactive |
| c1ccc(N2CCN(c3nc(-c4ccccn4)nc4ccccc34)CC2)cc1 | inconclusive: 23.1 µM [falling, partial curve, poor fit] |
| CCS(=O)(=O)N1CCN(c2ccc([N+](=O)[O-])c(NCC3CCCO3)c2)CC1 (stereo not drawn) | inconclusive: 16.4 µM [falling, partial curve, poor fit] |
| N/C(=N\OC(=O)COc1ccc(Br)cc1Cl)c1cccnc1 | inconclusive: 25.9 µM [activator, partial curve, poor fit] |
| N#CC(c1cccc(Cl)c1)c1ccc2c(C(F)(F)F)cc(C(F)(F)F)nc2n1 (stereo not drawn) | active: 6.51 µM |
| C#CCOCCOCCOCCNc1nc(N2CCN(C(=O)CCCCCCCCCCNC(=O)[C@H](CCCCN)n3cc(C)nn3)CC2)nc(N2CCN(C(=O)CCCCCCCCCCNC(=O)[C@@H]([C@H](C)O)n3cc(C)nn3)CC2)n1 | inconclusive: 29.1 µM [falling, single point] |
| Cc1ccc(S(=O)(=O)N2CCCC2C(=O)N(C)Cc2cccs2)cc1 (stereo not drawn) | inactive |
| Cc1cc(N2CCN(C)CC2)nc2ccc(NC(=S)N3CCCCC3)cc12 | inconclusive: 18.4 µM [falling, partial curve, poor fit] |
| COc1ccc2c(c1)C(C)=CC(C)(C)N2C(=O)Nc1ccccc1 | inconclusive: 5.8 µM [falling, partial curve, poor fit] |
| Cc1[nH]n(-c2ncc(-c3ccccc3)s2)c(=O)c1C(c1ccc(Br)cc1)C(C#N)C#N (stereo not drawn) | inactive |

| Compound | Potency |
| --- | --- |
| CCOc1c(O)ccc(/C=C2\SC(=S)NC2=O)c1[N+](=O)[O-] | inconclusive: 32.6 µM [falling, partial curve, poor fit] |
| O=c1[nH]c(/C=C\c2cccs2)nc(O)c1[N+](=O)[O-] | inconclusive: 14.6 µM [falling, partial curve, poor fit] |
| N#C/C(=C\c1ccc(O)c([N+](=O)[O-])c1)c1nc2ccccc2s1 | active: 14.6 µM |
| Nc1nc(F)nc2c1ncn2[C@@H]1O[C@H](CO)[C@@H](O)[C@H]1O | inconclusive: 2.31 µM [falling, full curve] |
| Cc1ccc(F)cc1NCC(=O)Nc1ccc(Cl)cc1F | inconclusive: 8.2 µM [activator, partial curve, poor fit] |
| O=C(NP(=O)(N1CCOCC1)N1CCOCC1)C1=C(N2CCOCC2)/C(=C\c2ccccc2)CC1 | inactive |
| O=C(C[n+]1cc(Br)cc2ccccc21)c1ccccc1 | inconclusive: 29.1 µM [activator, single point] |
| CCN(CC)c1ccc(-n2nc3cc(C)c(NC(=O)c4ccccc4C)cc3n2)c(C)c1 | inconclusive: 20.6 µM [activator, partial curve] |
| O=C(Nc1ccc(F)cc1)c1ccccc1 | inconclusive: 6.51 µM [activator, single point] |
| Cc1nc(=S)c2c([nH]1)-c1ccccc1CC21CCCCC1 | inconclusive: 20.6 µM [falling, single point] |
| CCn1c(CSc2nc(C)cc(C)n2)nnc1SCC(=O)N1CCCc2ccccc21 | inconclusive: 29.1 µM [activator, single point] |
| CCOC(=O)c1sc2ccccc2c1S(=O)(=O)N1CCN(c2cc(C)ccc2C)CC1 | inconclusive: 23.1 µM [activator, partial curve, poor fit] |
| CC[C@H]1CN2CCc3cc(OC)c(OC)cc3C2C[C@@H]1C[C@H]1NCCc2cc(OC)c(OC)cc21 (stereo partly drawn) | inconclusive: 0.146 µM [falling, full curve] |
| Cc1nc(N2CCNCC2)c2c3c(sc2n1)CCCC3 | inconclusive: 9.2 µM [falling, partial curve, poor fit] |
| O=C1NC(=Nc2ccc(O)cc2)S/C1=C/c1ccco1 | inconclusive: 29.1 µM [falling, single point] |
| Cc1cc2oc(=O)cc(CN3CCN(S(=O)(=O)c4ccc5c(c4)OCCO5)CC3)c2cc1C | inconclusive: 29.1 µM [falling, partial curve, poor fit] |
| N#CC1=C(S)N(c2ccc(F)cc2)C(c2ccco2)NC1=O (stereo not drawn) | inactive |
| CN(C)c1ccc(N=C/C=C2\N(C)c3ccccc3C2(C)C)cc1 | inconclusive: 18.4 µM [falling, partial curve, poor fit] |
| CCOc1ccccc1N(C(=O)c1snc(C(N)=O)c1N)C(C(=O)NC1CCCC1)c1cccs1 (stereo not drawn) | inactive |
| COc1cc(C(=O)NCc2ccc(-c3nc4ccccc4o3)cc2)cc(OC)c1OC | inconclusive: 0.13 µM [falling, full curve, poor fit] |
| O=C(COc1ccccc1F)NCC(c1ccc(F)cc1)N1CCOCC1 (stereo not drawn) | inconclusive: 7.31 µM [activator, partial curve, poor fit] |

| Compound | Potency |
| --- | --- |
| S=C(Nc1ccc(Cl)c(Cl)c1)NC1CCCCC1 | inconclusive: 29.1 µM [falling, single point] |
| CC(=O)C(Cc1ccccc1)NC(=O)CN1c2cccc3cccc(c23)S1(=O)=O (stereo not drawn) | inconclusive: 18.4 µM [falling, partial curve, poor fit] |
| COc1ccc(N2CCN(C(c3ccccc3)c3sc4nc(C)nn4c3O)CC2)cc1 (stereo not drawn) | inconclusive: 0.13 µM [activator, full curve, poor fit] |
| COc1cc(OC)c(NC(=O)CCCn2nc(C)c3sc4ccccc4c3c2=O)cc1Cl | inconclusive: 20.6 µM [falling, single point] |
| COc1ccc(C(CNC(=O)c2c(C)nn(Cc3ccccc3)c2Cl)N2CCOCC2)cc1 (stereo not drawn) | inactive |
| COc1cc(/C=C(\C#N)c2nc3ccc(C)cc3[nH]2)c([N+](=O)[O-])cc1OC | inconclusive: 32.6 µM [falling, partial curve, poor fit] |
| O=C(c1ccc2c(c1)N(Cc1cccc(Cl)c1)C(=O)c1ccccc1S2(=O)=O)N1CCCCC1 | inconclusive: 29.1 µM [falling, single point] |
| Cc1cc(C)c(NC(=O)CN(C)CC(=O)Nc2cccc(S(=O)(=O)N(C)c3ccccc3)c2)c(C)c1 | inconclusive: 29.1 µM [falling, single point] |
| CCCCCOP(=O)(OCCCCC)C1(NS(=O)(=O)c2ccccc2)C=CC(=O)c2ccccc21 (stereo not drawn) | inconclusive: 29.1 µM [falling, single point] |
| CC(=O)c1sc(-c2ccc(F)cc2)cc1NS(=O)(=O)c1ccc(C)cc1 | inactive |
| CCCCNC(=O)c1cc2c(=O)n3cccc(C)c3nc2n(Cc2ccncc2)c1=N | inconclusive: 16.4 µM [activator, partial curve] |
| Oc1ccc(-c2csc(Nc3ncccn3)n2)cc1O | inconclusive: 23.1 µM [falling, single point] |
| Cc1ccc(-c2nc(C#N)c(NCCN3CCCCC3)o2)cc1 | inconclusive: 5.8 µM [activator, partial curve, poor fit] |
| O=C1NC(c2cccc3ccccc23)Nc2ccccc21 (stereo not drawn) | inconclusive: 8.2 µM [falling, partial curve, poor fit] |
| CCSc1nc2ccccc2n1C(=O)/C=C\c1ccc(OC)c(OC)c1 | inconclusive: 29.1 µM [falling, single point] |
| CCC(C)C(=O)Nc1nc(-c2ccc3c(c2)NC(=O)CO3)cs1 (stereo not drawn) | inactive |
| O=C(COc1ccc(Cl)cc1)Nc1ncc([N+](=O)[O-])s1 | inconclusive: 16.4 µM [falling, single point] |
| C#CCOCCOCCOCCNc1nc(N2CCN(C(=O)CCCCCCCCCCNC(=O)[C@H]([C@@H](C)CC)n3cc(CCCCN=C(N)N)nn3)CC2)nc(N2CCN(C(=O)CCCCCCCCCCNC(=O)[C@H](CO)n3cc(CCCSC)nn3)CC2)n1 | inconclusive: 23.1 µM [falling, single point] |
| CCCCc1cc(=O)oc2cc(C)c3c(C)coc3c12 | inconclusive: 20.6 µM [activator, partial curve, poor fit] |
| Oc1ccc2c(c1)OCC1(O)Cc3cc(O)c(O)cc3C21 (stereo not drawn) | inconclusive: 29.1 µM [falling, single point] |
| CC(C)(C)OC(=O)N1CCC(NC(=O)c2[nH]cnc2C(=O)Nc2cccc(Cl)c2)CC1 | inconclusive: 32.6 µM [falling, partial curve, poor fit] |
